According to patent publication US5969099A, “Growth factor analogs” (The Secretary of State for Defence, priority 1995, dated 1999):
At least one peptide structure holds a part that was inferred or is arguable (an end, a ring closure or a residue). Numbered stars: 1 amine (or outer) side, 2 acyl side, 3 side chain; on linkers, the order of the positions; unused ones are H or OH. Bridge positions count the residues as written; N and C are the ends. Square brackets hold non-standard residues; d marks the D form. Peptide text beside a SMILES is read from it. X1 = O=C([C@H]1[C@H]2CC[C@H](C2)N1[*:1])[*:2]

Experiments:
[1] = molecular target: T1, EGF Receptor (Homo sapiens, UniProt P00533); test: EGF Receptor Tyr phosphorylation assay in HN5 cells (Western blotting); format: cell-based; conditions: 10 minutes at room temperature
T1 construct: endogenous in cells; host or cells: HN5 squamous carcinoma cells
Procedure: EGF Receptor Tyr phosphorylation assays were performed using HN5 cells at approximately 50% confluence in 96-well plates. Cells were plated in 10% FBS/DMEM and allowed to adhere overnight. Medium was removed and wells washed twice with DMEM. The peptide was diluted in DMEM and added in 50 μl volume and cells incubated for 10 minutes at room temperature. At the end of incubation, reagents were removed and the cells washed once with 50 μl/well buffered saline and then rapidly solubilised with 50 μl/well×1 sample buffer containing phosphatase and protease inhibitors (1 mM NaF, 1 mM Na3 VO4, 100 μM PMSF). Enhanced phosphorylation of the 170 kDa EGF-R was determined by Western Blotting after SDS polyacrylamide gel electrophoresis as in Holt, S. J. et al, Biochem. Pharmacol. 1994, 47, 117-126.

[2] = test system: NR6 cells; test: Mitogenic activity on parental NR6 cell line which lacks EGF-R; format: cell-based, mouse; conditions: doses maximally stimulating for NR6/HER cells; FIG. 3
[3] = test system: NR6/HER cells; test: Effect of peptide on the mitogenic response induced by TGFA; format: cell-based, mouse; conditions: for effect on mitogenic response at maximal doses of TGFA: FIG. 2(b); for effect on mitogenic response at suboptimal doses of TGFA: FIG. 2(a)
Procedure: (§1) The ability of the Example 1 peptide to induce DNA synthesis in confluent and quiescent cells was assayed as described in Davies, D. E. et al, Br. J. Cancer 1994, 70, 263-269 but using NR6/HER or NR6 cells in place of human foreskin fibroplasts.

[4] = test system: NR6/HER cells; format: cell-based, mouse; conditions: cyclic (disulphide bridged) peptide; FIG. 1
Procedure: NR6 and NR6/HER cells (NR6 mouse fibroblasts transfected with human EGF-R expression plasmid) and HN5 squamous carcinoma cells (see Cowley, G. P. et al, Br. J. Cancer 1986, 53, 2230229) were routinely cultured in Dulbecco's Modified Eagles Medium (DMEM) containing 10% foetal bovine serum (FBS), 2 mM glutamine, non-essential amino acids, 10 U/ml penicillin and 10 μg/ml streptomycin at 37° C. in a humidified atmosphere of air containing 5% CO2. G418 (100 μg/ml) was also included in the NR6/HER growth medium as selection for EGF Receptor encoding transformants.
as §1

Question: For CC(C)C[C@@H]1NC(=O)[C@H](Cc2ccccc2)NC(=O)[C@H](CCCNC(=N)N)NC(=O)[C@@H](NC(=O)[C@@H](N)Cc2ccccc2)CSSC[C@@H](C(=O)O)NC(=O)[C@H](C)NC(=O)[C@H]2[C@H]3CC[C@H](C3)N2C(=O)[C@H](CCCCN)NC(=O)[C@H](CC(=O)O)NC(=O)[C@H](CCC(=O)O)NC(=O)[C@H](CCC(N)=O)NC(=O)[C@H](C(C)C)NC1=O [Example 1 peptide] (H-FCRFLVQEDK[X1]AC-OH; disulfide 2-13), which “EGF Receptor phosphorylation” value [1] is on record?
Answer: The value was “Neither the Example 1 peptide nor the corresponding peptide incorporating LABHC appeared to lead to increased EGF Receptor phosphorylation”.

Question: And the “mitogenic response of NR6 cells (EGF-R negative)” value [2]?
Answer: Its value is “showed a mitogenic response”.

Question: What about the “effect on mitogenic response at maximal doses of TGFA” value (“effect … at maximal doses of TGFA” for short) [3] of the same compound?
Answer: The value was “reduced the mitogenic response”.

Question: And the “effect on mitogenic response at suboptimal doses of TGFA” value (from here on “effect … at suboptimal doses of TGFA”) [3]?
Answer: The value was “additive response up to the plateau level of stimulation by TGFA”.

Question: With CC(C)C[C@@H]1NC(=O)[C@H](Cc2ccccc2)NC(=O)[C@H](CCCNC(=N)N)NC(=O)[C@@H](NC(=O)[C@@H](N)Cc2ccccc2)CSSC[C@@H](C(=O)O)NC(=O)[C@H](C)NC(=O)[C@@H]2CCCN2C(=O)[C@H](CCCCN)NC(=O)[C@H](CC(=O)O)NC(=O)[C@H](CCC(=O)O)NC(=O)[C@H](CCC(N)=O)NC(=O)[C@H](C(C)C)NC1=O [L-proline peptide, reference compound] (H-FCRFLVQEDKPAC-OH; disulfide 2-13) as the compound, how does the “mitogenic activity (DNA synthesis)” value [4] read?
Answer: The value was “inactive”.

Question: And the “effect … at maximal doses of TGFA” value [3]?
Answer: The value was “did not yield the same effect”.

Question: And the “effect … at suboptimal doses of TGFA” value [3]?
Answer: The value was “did not yield the same effect”.

Question: How did the “mitogenic activity (DNA synthesis)” value [4] turn out when CC(C)C[C@@H]1NC(=O)[C@H](Cc2ccccc2)NC(=O)[C@H](CCCNC(=N)N)NC(=O)[C@@H](NC(=O)[C@@H](N)Cc2ccccc2)CSSC[C@@H](C(=O)O)NC(=O)[C@H](C)NC(=O)[C@H]2CCCN2C(=O)[C@H](CCCCN)NC(=O)[C@H](CC(=O)O)NC(=O)[C@H](CCC(=O)O)NC(=O)[C@H](CCC(N)=O)NC(=O)[C@H](C(C)C)NC1=O [D-proline peptide, reference compound] (H-FCRFLVQEDK[dP]AC-OH; disulfide 2-13) was run?
Answer: The value was “inactive”.

Question: And the “effect … at maximal doses of TGFA” value [3]?
Answer: The value was “did not yield the same effect”.

Question: And the “effect … at suboptimal doses of TGFA” value [3]?
Answer: Its value is “did not yield the same effect”.
